Results reported in article PMC7819943, “Rice protein-binding microarrays: a tool to detect cis-acting elements near promoter regions in rice”.
The list shows a part of the results.

Target: T1, OsSMF1 (Oryza sativa, UniProt Q6ZLB0 1-436)
T1 sequence: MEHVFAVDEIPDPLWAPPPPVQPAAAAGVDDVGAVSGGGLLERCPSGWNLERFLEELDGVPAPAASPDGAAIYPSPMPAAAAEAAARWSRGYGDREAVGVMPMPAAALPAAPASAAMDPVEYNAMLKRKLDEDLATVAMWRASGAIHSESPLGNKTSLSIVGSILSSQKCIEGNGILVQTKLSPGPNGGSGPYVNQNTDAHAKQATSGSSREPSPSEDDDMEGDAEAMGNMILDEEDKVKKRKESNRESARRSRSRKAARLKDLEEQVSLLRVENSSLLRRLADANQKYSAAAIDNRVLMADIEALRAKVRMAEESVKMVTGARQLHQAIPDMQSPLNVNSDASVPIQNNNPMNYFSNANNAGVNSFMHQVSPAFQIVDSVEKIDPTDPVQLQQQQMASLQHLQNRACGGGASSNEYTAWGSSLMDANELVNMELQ
Assay: protein-binding microarray (RPBM); PBS, 2% BSA, 51.3 ng/ul salmon testes DNA, 50 uM zinc acetate, 200 nM TF, 25 C, 1 h; high values mean tight binding
Settings: protein: recombinant; tags: N-terminal polyhistidine and DsRed monomer fusion (pET32a); chain copies: 2; label: CyDye5-dUTP incorporated in the synthesized complementary strand; 3' TTTTT single-stranded linker to array surface; dsDNA, one strand shown
Summary of the method: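 In PBS with 2% BSA, salmon testes DNA and 50 µM zinc acetate, 200 nM protein was incubated on a custom Agilent array at 25 °C for 1 h and then washed off. The array had been made double-stranded by primer extension with Cy5-dUTP and blocked with 2% BSA. The proteins were transcription factors fused N-terminally to polyhistidine and DsRed, expressed in E. coli BL21-CodonPlus and purified on Ni–NTA. The binding signal is per-feature fluorescence intensity (arbitrary units) from an Axon 4000B scanner.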

Going from “CGGCATGATGGCCTTCTCCATCACCTCCGCTGCGTCGGCGCGGAGTCACCTAGTGCAG” to “AACATGATTTAACAGGTAACAGTCGCCCATGCCATTCTTGCGGAGTCACCTAGTGCAG”, the binding signal rises from 3150 fluorescence intensity (a.u.) to 3350 fluorescence intensity (a.u.).

Compared with “GTTGTCCATGCCCCTGTTCTTATGAGTCACAGCGATTCAGCGGAGTCACCTAGTGCAG”, “GCTGCCGCTGACTTCCGTCCCCTCCACGCTTGTCTCACTGCGGAGTCACCTAGTGCAG” is lower in binding signal: 7380 fluorescence intensity (a.u.) for the first, 3230 fluorescence intensity (a.u.) for the second.

First: GGTTCGAGCAGATTTGGTCCAGCCCAATTTCAGGGCACAACGGAGTCACCTAGTGCAG
Second: ACCATGTGCCACCTCCCACTTGGTATGCTCCATGCTCGTCCGGAGTCACCTAGTGCAG
The binding signal of the first is higher: 3620 fluorescence intensity (a.u.) for the first, 3230 fluorescence intensity (a.u.) for the second.

First: TTTCGTGTGCTACCTCAACGCGTCATAGTGTACAACACAACGGAGTCACCTAGTGCAG
Second: GTCCCATCTCGACCGTCCACGTGTGGCCCATCCGTGAGCTCGGAGTCACCTAGTGCAG
The binding signal of the first is lower: 4390 fluorescence intensity (a.u.) for the first, 4990 fluorescence intensity (a.u.) for the second.

Compared with “TGCATGTTGCATGGCAGTCACATTCCACATCACATGCTTCCGGAGTCACCTAGTGCAG”, “CCCCAACTGAAGAACAATACGATATACTGTGATTTGAACCCGGAGTCACCTAGTGCAG” is lower in binding signal: 7720 fluorescence intensity (a.u.) for the first, 3720 fluorescence intensity (a.u.) for the second.

Compared with “ACTACTACGAAACAGTCATCTGTACAAGGAGCTATGTCAGCGGAGTCACCTAGTGCAG”, “TGAAAATCGCGAGACAAATCTTTTGAGCCTAATTAGTCCCCGGAGTCACCTAGTGCAG” is higher in binding signal: 6160 fluorescence intensity (a.u.) for the first, 29000 fluorescence intensity (a.u.) for the second.

Going from “AAAGGATAGTTTCGCTAACGTGATGTCTATGTGACGTGTTCGGAGTCACCTAGTGCAG” to “TTGTCAAGCGCGCGACCGTGACACGGCTGCCTGGGCGGTCCGGAGTCACCTAGTGCAG”, the binding signal falls from 14200 fluorescence intensity (a.u.) to 3180 fluorescence intensity (a.u.).

Compared with “TGGCTATCAATTCTAGCTAGAATGACATCAGCTGCATGCTCGGAGTCACCTAGTGCAG”, “GACCTGTGACAGTGTTACTGCCACTGCTGCACTGCACACACGGAGTCACCTAGTGCAG” is lower in binding signal: 7710 fluorescence intensity (a.u.) for the first, 4150 fluorescence intensity (a.u.) for the second.

First: TATTATATTCACTTTGGTGTATGGCCAAGAACTACAGACTCGGAGTCACCTAGTGCAG
Second: ATGTGACTACCACCTCTAAATTTATCTATTTTATTCACTCCGGAGTCACCTAGTGCAG
The binding signal of the first is higher: 27600 fluorescence intensity (a.u.) for the first, 18600 fluorescence intensity (a.u.) for the second.

Going from “CAGTGCTAGGGAAGCGACCAATGATGGATAGTGGGAGGCACGGAGTCACCTAGTGCAG” to “TATCGATTCCAGCCAATGATGACACTATGACTTCAATTCGCGGAGTCACCTAGTGCAG”, the binding signal falls from 45600 fluorescence intensity (a.u.) to 3490 fluorescence intensity (a.u.).

Compared with “CGATAGCGGGAACAGTTGATTATGGTGCGGTACAAATTTCCGGAGTCACCTAGTGCAG”, “CCACCTGTCGCACTGTACATCGCCACATGTGTATGCCAGCCGGAGTCACCTAGTGCAG” is higher in binding signal: 3380 fluorescence intensity (a.u.) for the first, 6070 fluorescence intensity (a.u.) for the second.

Compared with “CCACTTGGCCATTTCCCATCTGCCTCCTGGAGCTTTAGCTCGGAGTCACCTAGTGCAG”, “GTTAGACCGGTTGCTAGTCCCGGTAAGACCGCAGATATAACGGAGTCACCTAGTGCAG” is higher in binding signal: 3260 fluorescence intensity (a.u.) for the first, 30600 fluorescence intensity (a.u.) for the second.

First: TCCGGCTCTTCATCCTACGTGGAATGAGATAGGGGAACGCCGGAGTCACCTAGTGCAG
Second: TCAATACCAATGGGCTGGGCTACAGGTGAGCTGGCCATCCCGGAGTCACCTAGTGCAG
The binding signal of the first is higher: 4680 fluorescence intensity (a.u.) for the first, 3360 fluorescence intensity (a.u.) for the second.

Going from “GAGAAGAGGGGAAAGAGAGGGGTGACGTGGACACCCTGACCGGAGTCACCTAGTGCAG” to “TCTCCTCATCATCCGAGTCGTCATCATCATCGTCGTCGTCCGGAGTCACCTAGTGCAG”, the binding signal falls from 21800 fluorescence intensity (a.u.) to 7460 fluorescence intensity (a.u.).

Going from “GTTTTGTTCCCTCGCATTGCGTCGAGTCATTGGGATTGATCGGAGTCACCTAGTGCAG” to “GAGATGTGGAGGGCCCACGTGTCAGGGACACCCAACGGGACGGAGTCACCTAGTGCAG”, the binding signal falls from 4750 fluorescence intensity (a.u.) to 4180 fluorescence intensity (a.u.).

Going from “TCTCCTCTTCTCGCTTCGCCTTCTCCTCTCCTTGTCCTTGCGGAGTCACCTAGTGCAG” to “CGGCGGCGGCGTCATCGTCCTCGCCGCCCCTTATCCGGTCCGGAGTCACCTAGTGCAG”, the binding signal rises from 3310 fluorescence intensity (a.u.) to 3320 fluorescence intensity (a.u.).

Compared with “AGCTTTCCAAAAGACCACACGATGTGTCACCAAACGTCAGCGGAGTCACCTAGTGCAG”, “TATGTCCTACGTCAGGATCATAAAACCTCTGAAGCAATGACGGAGTCACCTAGTGCAG” is lower in binding signal: 7570 fluorescence intensity (a.u.) for the first, 5390 fluorescence intensity (a.u.) for the second.

Going from “AAGCGCGCGCCTCGCCACCTCACCCGAAGAAATTCCCCACCGGAGTCACCTAGTGCAG” to “TGAAAGGGGTTGATGTGTGGTGAAGGGTAGGTAATTTGTACGGAGTCACCTAGTGCAG”, the binding signal falls from 4140 fluorescence intensity (a.u.) to 3860 fluorescence intensity (a.u.).

Compared with “AGGCATTATTGCTGCCGCTTGCCGTTGCCGCAGTACTCAGCGGAGTCACCTAGTGCAG”, “CGGCTCCGCCGCACTTGCTCGGCCGTCCACGCCGGCACGGCGGAGTCACCTAGTGCAG” is lower in binding signal: 19300 fluorescence intensity (a.u.) for the first, 3640 fluorescence intensity (a.u.) for the second.

Going from “ATATCATATCGAAAGAAAGATGTTGTCCACCGCAGCTCCCCGGAGTCACCTAGTGCAG” to “TGAACAAGGTTGATGTCAAACTTTTATAACTTTAATCATTCGGAGTCACCTAGTGCAG”, the binding signal rises from 3410 fluorescence intensity (a.u.) to 7100 fluorescence intensity (a.u.).

First: GGATCTAAATCCGCCACGTGTCAACCTAAGCGATAGGAAACGGAGTCACCTAGTGCAG
Second: GTCAAGGTGCATATGGAACAGTTTATAAGGTAAGTTGAGGCGGAGTCACCTAGTGCAG
The binding signal of the first is higher: 14800 fluorescence intensity (a.u.) for the first, 3190 fluorescence intensity (a.u.) for the second.
